PubChem BioAssay AID1671190 (National Center for Advancing Translational Sciences (NCATS), 2021)
Hit rate of the full screen: of about 580,000 compounds, about 6,100 (1.1%) were called active. The shares of active, inactive and inconclusive entries below differ from those in the screen. Calls come from the whole dose curve; as a rule, active = well fitted inhibition curve with a large enough effect; inconclusive = small, poorly fitted or top-dose-only effect, or another doubt; inactive = no such curve, though single readings can be large or run the other way. Where the call is inconclusive, the potency comes from a doubtful curve fit.

Protein sequences, listed by entry. Tags and fused reporters are not part of them. Lines headed by an entry give the natural chain unless they say otherwise; changes in a name come on top.
UniProt P18054: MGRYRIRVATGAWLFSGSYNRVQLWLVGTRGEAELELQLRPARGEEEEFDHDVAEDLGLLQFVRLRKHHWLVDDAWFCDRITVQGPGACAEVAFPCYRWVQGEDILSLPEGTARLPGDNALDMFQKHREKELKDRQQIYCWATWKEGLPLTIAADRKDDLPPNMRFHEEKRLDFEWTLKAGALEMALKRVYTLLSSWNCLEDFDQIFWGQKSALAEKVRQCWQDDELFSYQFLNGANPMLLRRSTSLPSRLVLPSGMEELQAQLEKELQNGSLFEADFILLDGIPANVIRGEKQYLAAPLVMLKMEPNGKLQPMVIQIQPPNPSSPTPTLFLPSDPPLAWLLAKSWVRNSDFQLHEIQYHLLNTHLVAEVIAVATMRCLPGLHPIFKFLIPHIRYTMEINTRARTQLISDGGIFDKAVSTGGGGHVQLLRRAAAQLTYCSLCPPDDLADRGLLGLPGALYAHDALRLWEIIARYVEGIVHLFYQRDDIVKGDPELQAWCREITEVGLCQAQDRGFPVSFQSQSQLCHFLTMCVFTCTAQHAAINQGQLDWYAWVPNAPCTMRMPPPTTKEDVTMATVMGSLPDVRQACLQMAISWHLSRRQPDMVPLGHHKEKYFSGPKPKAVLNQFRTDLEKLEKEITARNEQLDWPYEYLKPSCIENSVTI

Molecular target: Polyunsaturated fatty acid lipoxygenase ALOX12 (Homo sapiens) (UniProt P18054)
Experiment: Primary qHTS assay for inhibitors of human arachidonate 12S-lipoxygenase (ALOX12): Round 2
Conditions: purified 12hLO, xylenol orange hydroperoxide absorbance; series mostly up to 108 µM
Outline: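 Hydroperoxide product was detected by ferrous iron/xylenol orange as the 573 to 405 nm absorbance ratio. Arachidonic acid at 40 uM (final) was turned over for 30 min at room temperature by 150 nM human 12hLO, pH 7.0 Hepes buffer, after 15 min compound preincubation.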
Potency is the fitted concentration of half-maximal effect.

SMILES | Potency
COc1ccc(CCNC(=O)CSc2cccc3cccnc23)cc1OC | inconclusive: 50.1 µM [inhibitor, partial curve, poor fit]
CC(NC(=O)Cc1ccc(Cl)cc1)C12CC3CC(CC(C3)C1)C2 (stereo not given) | inconclusive: 10 µM [inhibitor, partial curve, poor fit]
Cc1ccccc1Cn1cc(-c2ccncc2)cc1C(=O)N(C)Cc1ccco1 | inactive
COc1cc(SC)ccc1C(=O)N[C@H]1CCN2C(=O)N(c3cccc(SC)c3)C(=O)[C@@H]2C1 | inactive
O=c1oc2ccc(Br)cc2cc1-c1nc(-c2cccs2)no1 | inconclusive: 89.1 µM [inhibitor, partial curve, poor fit]
CCCCn1c(=O)[nH]c(=O)c2c1nc(CNc1cc(F)ccc1C)n2CC | inconclusive: 31.6 µM [inhibitor, partial curve, poor fit]
CCCC(C)NC(=O)C1CCN(C(=O)c2ccc(C(F)(F)F)cc2)CC1 (stereo not given) | inconclusive: 89.1 µM [inhibitor, partial curve, poor fit]
COc1ccccc1C(=O)Nc1ccc(C(=O)O)cc1 | inconclusive: 141 µM [inhibitor, single point]
CSc1ccccc1NC(=O)Cn1nc([N+](=O)[O-])cc1C | inactive
c1ccc2c(CN3CCC[C@H]3c3nc(-c4ccc(OC5CCCCC5)nc4)no3)c[nH]c2c1 | inactive
COc1ccc(C(=O)O)cc1S(=O)(=O)N1CCSCC1 | inconclusive: 17.8 µM [inhibitor, partial curve, poor fit]
CCc1cc(C(=O)O)c2c(C3CC3)nn(-c3ccccc3F)c2n1 | inconclusive: 25.1 µM [inhibitor, full curve, poor fit]
CC(=NNC(=S)Nc1cccc(Cl)c1)c1ccccn1 | inconclusive: 50.1 µM [inhibitor, partial curve, poor fit]
O=C(NCc1ccccc1)C1c2ccccc2OCC(=O)N1Cc1ccc2c(c1)OCO2 (stereo not given) | inconclusive: 126 µM [inhibitor, single point]
CCn1cc(C(=O)Nc2ccc(OC)c(S(=O)(=O)N3CCCCC3)c2)c(=O)c2ccc(C)nc21 | inconclusive: 50.1 µM [inhibitor, partial curve, poor fit]
CCC(=C(c1ccc(OC)cc1)c1ccc(OC)cc1)c1cn(CC(O)CN2CCN(C)CC2)c2ccccc12 (stereo not given) | inconclusive: 44.7 µM [inhibitor, partial curve, poor fit]
CCNC(=S)N/N=C/c1cccc(OCc2c(F)cccc2Cl)c1 | active: 39.8 µM
CC(C)(C)C(=O)NC(=S)Nc1ccccc1N1CCCC1 | inconclusive: 39.8 µM [inhibitor, partial curve, poor fit]
CC(=O)Nc1nc(-c2ccc3c(c2)CCN3C(=O)C2CC2)c(C)s1 | inconclusive: 100 µM [inhibitor, single point]
CCCCn1c(=O)c2c(nc(-n3nc(C)c(C)c3C)n2Cc2ccc(F)cc2)n(C)c1=O | inactive
Cc1cc(/C=C\c2nc(O)c([N+](=O)[O-])c(=O)[nH]2)c(C)n1-c1ccccc1 | inconclusive: 44.7 µM [inhibitor, partial curve, poor fit]
CCOC(=O)C1CCN(S(=O)(=O)c2nc3nc(C)cc(C)n3n2)CC1 | inactive

SMILES | Potency
CCCCn1c(SCC(=O)c2ccc3c(c2)NC(=O)CO3)nc2cc(S(N)(=O)=O)ccc21 | inconclusive: 44.7 µM [inhibitor, partial curve, poor fit]
COc1ccc(CN2C(=O)COc3ccccc3C2c2nc3ccccc3[nH]2)cc1 (stereo not given) | inconclusive: 31.6 µM [inhibitor, partial curve, poor fit]
CCC[C@H]1[C@@H](NC(=O)Nc2ccc(Cl)cc2)CC[C@@]23CCCN2C(=O)CCC[C@@H]13 | inconclusive: 14.1 µM [inhibitor, partial curve, poor fit]
NC(=O)c1cc([N+](=O)[O-])ccc1Nc1ccccc1 | inconclusive: 141 µM [inhibitor, single point]
Cc1c(C)c(C)c(S(=O)(=O)Nc2cc(Cl)ccc2C(=O)N(C)C)c(C)c1C | active: 39.8 µM
Cc1ccc(CCNC(=O)CN(c2cc(C)cc(C)c2)S(=O)(=O)c2c(C)noc2C)cc1 | inactive
COc1cccc(-n2ccn(CC(=O)NCc3ccc(C)cc3)c(=O)c2=O)c1 | inconclusive: 126 µM [inhibitor, partial curve, poor fit]
S=C(NCc1ccccc1)N/N=C/c1ccc(OCCOc2ccc(Br)cc2)cc1 | inactive
O=S(=O)(Nc1nc2ccccc2nc1Cl)c1ccc(Cl)cc1 | inconclusive: 4.47 µM [inhibitor, full curve, poor fit]
CCOC(=O)CSC(=S)NC(=O)c1ccc(OC)cc1 | inconclusive: 44.7 µM [inhibitor, partial curve, poor fit]
CN1CCN(C(=S)c2ccc(-c3cc(Cl)ccc3Cl)o2)CC1 | inconclusive: 0.631 µM [inhibitor, full curve, poor fit]
NCCOc1ccc(C23CC4CC(CC(C4)C2)C3)cc1 | inconclusive: 100 µM [inhibitor, partial curve, poor fit]
O=C(O)CSc1c(Cl)cccc1Cl | inactive
C/C=C/C=N/NC(=O)C(O)c1ccccc1 (stereo not given) | inconclusive: 44.7 µM [inhibitor, partial curve, poor fit]
O=[N+]([O-])c1ccc(N2CCN(c3ccc([N+](=O)[O-])cc3CO)CC2)c(CO)c1 | inactive
O=C(Nc1cccc(-c2nc3cccnc3s2)c1)c1ccco1 | inactive
O=c1cc(-c2ccc(F)cc2)oc2ccc(F)cc12 | inconclusive: 63.1 µM [inhibitor, partial curve, poor fit]
O=[N+]([O-])c1ccc2[nH]c(=S)sc2c1 | inconclusive: 35.5 µM [inhibitor, partial curve, poor fit]
CC(C)C[C@H](NC(=O)[C@H](C)n1nnc2ccccc2c1=O)C(=O)O | inconclusive: 112 µM [inhibitor, single point]
Cc1ccc(Nc2ccc3cc(S(=O)(=O)N4CCCCC4)ccc3n2)cc1F | inconclusive: 50.1 µM [inhibitor, partial curve]
CC(Oc1ccccc1)C(=O)N1CCN(C(=O)c2nnn3c2COC(c2ccc(Cl)cc2)C3)CC1 (stereo not given) | inactive
Cc1ccc(CC(=O)CCc2ccccc2)cc1 | inactive

Quoted at random: 3 compounds from above.
SMILES | Potency
O=S(=O)(Nc1nc2ccccc2nc1Cl)c1ccc(Cl)cc1 | inconclusive: 4.47 µM [inhibitor, full curve, poor fit]
Cc1ccc(CCNC(=O)CN(c2cc(C)cc(C)c2)S(=O)(=O)c2c(C)noc2C)cc1 | inactive
COc1ccc(C(=O)O)cc1S(=O)(=O)N1CCSCC1 | inconclusive: 17.8 µM [inhibitor, partial curve, poor fit]

(more compounds)

SMILES | Potency
Cc1ccc(Sc2cnn(-c3ccccc3)c(=O)c2Cl)cc1 | inactive
Cc1ccc(C)c(SCC(=O)Nc2ccc(C)c(S(=O)(=O)N3CCOCC3)c2)c1 | inconclusive: 56.2 µM [inhibitor, partial curve, poor fit]
CCOC(=O)c1ccc(NC(=O)CSc2nc(-c3ccc(OC)cc3)cc(C(F)(F)F)c2C#N)cc1 | inconclusive: 141 µM [inhibitor, partial curve, poor fit]
FC(F)(F)c1ccc(CCNC(=S)NCCc2ccccc2)cc1 | inconclusive: 44.7 µM [inhibitor, partial curve, poor fit]
COc1ccc(OC)c(C2C(C(=O)Nc3nc4ccccc4s3)=C(C)NC3=C2C(=O)CCC3)c1 (stereo not given) | inconclusive: 112 µM [inhibitor, single point]
O=c1c2nc(-c3ccoc3)ccc2ncn1-c1ccccc1 | inconclusive: 63.1 µM [inhibitor, full curve]
O=C(O)c1cc(-c2ccc(Cl)s2)[nH]n1 | inconclusive: 3.98 µM [inhibitor, full curve, poor fit]
Cc1ccc(NC(=S)NCC2(N(C)C)CCCCC2)cc1Cl | inconclusive: 44.7 µM [inhibitor, partial curve, poor fit]
COc1ccccc1C(=O)NC(=O)COC(=O)CCS(=O)(=O)c1ccc(C)cc1 | inconclusive: 31.6 µM [inhibitor, single point]
CC(=O)Nc1cccc(NC(=O)c2cc3cc(Cl)ccc3nc2C)c1 | inconclusive: 44.7 µM [inhibitor, partial curve, poor fit]
Cc1ccccc1-c1nc(NCCN2CCOCC2)c2ccccc2n1 | inconclusive: 44.7 µM [inhibitor, partial curve, poor fit]
CC1(C)Cc2nc3oc4c(=O)n(CC(=O)Nc5cccc(Cl)c5)cnc4c3cc2CO1 | inactive
COc1cccc(S(=O)(=O)N2CCCC(c3nc(C(C)C)no3)CCNC(=O)CC2)c1 (stereo not given) | inactive
CN(CC(=O)Nc1ccc(OC(F)(F)F)cc1)C(=O)c1n[nH]c2ccccc12 | inconclusive: 70.8 µM [inhibitor, partial curve, poor fit]
COc1ccc(C(=O)Nc2ccc(NC(=O)C3CC3)cn2)cc1 | inconclusive: 15.8 µM [inhibitor, full curve, poor fit]
Cc1cccc(N/N=C(\C#N)S(=O)(=O)C(C)(C)C)c1 | inconclusive: 0.398 µM [inhibitor, full curve, poor fit]
CC(=O)N1Cc2ccccc2CC2(CCN(Cc3ccccc3)C2)C1 (stereo not given) | inconclusive: 28.2 µM [inhibitor, full curve, poor fit]
CNC(=O)c1ccc(NC(=O)C2CCN(S(=O)(=O)c3ccc4c(c3)CCC4)CC2)cc1 | inconclusive: 79.4 µM [inhibitor, single point]
Cc1ccc(C2Cc3cc(O)c(O)cc3CN2)cc1 (stereo not given) | inactive
CCc1nnc(SC(CC)C(=O)Nc2ccc(OC)c(Cl)c2)c2cc3occc3n12 (stereo not given) | inactive
CCn1cc(S(=O)(=O)Nc2cc(F)ccc2F)cn1 | inactive
